# Assay results as given in PubChem BioAssay AID258 (DTP/NCI, 2004).
# The list shows only some results of the screen, not a fair sample: it gathers tests that were run many times, whatever their T/C, doses with no T/C, and many T/C values between a quarter and a half above the control. Further doses and runs are listed elsewhere. T/C: endpoint of the treated group in % of that of the vehicle group. Some doses have a count of surviving animals in place of a T/C: the source holds a T/C of zero for them, seemingly a mark for toxic or unscored doses. Some survivor counts are full or nearly so, which does not show that the dose was tolerated: the source hardly ever lists a survival T/C far under the control, and the zero likely stands for such cases as well. Counts of survivors are from the toxicity check (mostly the fifth day) where no day follows; animals may have died later. Schedules are NCI's codes, read here as Q, the interval in days (D) or hours (H), X, the number of doses. Some schedule codes hold Z or #, which are not explained here. Some entries hold several experiments; the results are listed from low to high. Where survival is the endpoint, this PubChem deposit counts one and a half times the control or more as active, and values a quarter to a half above the control carry no call in these data; other NCI protocols may use other cut-offs. Brackets with × give the number of equal values in this list. Some T/C values carry the count of animals alive at the toxicity check (mostly the fifth day); where none is given, no animal had died by that day.
# System: CD2F1 mice, L1210 leukemia sc, survival T/C
# Test: NCI In Vivo Anticancer Drug Screen. Data for tumor model L1210 Leukemia (subcutaneous) in CD2F1 (CDF1) mice
# Conditions: T/C endpoint: median survival time, higher T/C = longer survival
# Outline: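 T/C ratio: treated-group survival or tumor size over vehicle-control group measurement, in mice carrying transplanted tumors.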
# [1] = dose: 65.0 mg/kg/injection, schedule: Q01DX Z (sc), vehicle: methylcellulose (MC)
# [2] = dose: 108.0 mg/kg/injection, schedule: Q01DX Z (sc), vehicle: methylcellulose (MC)
# [3] = dose: 300.0 mg/kg/injection, schedule: Q01DX Z (sc), vehicle: methylcellulose (MC)
# [4] = dose: 180.0 mg/kg/injection, schedule: Q01DX Z (sc), vehicle: methylcellulose (MC)
# [5] = dose: 500.0 mg/kg/injection, schedule: Q01DX Z (sc), vehicle: methylcellulose (MC)
# [6] = dose: 833.0 mg/kg/injection, schedule: Q01DX Z (sc), vehicle: methylcellulose (MC)
# [7] = dose: 4.0 mg/kg/injection, schedule: Q01DX009 (sc), vehicle: saline + alcohol
# [8] = dose: 16.0 mg/kg/injection, schedule: Q01DX009 (sc), vehicle: saline + alcohol
# [9] = dose: 64.0 mg/kg/injection, schedule: Q01DX009 (sc), vehicle: saline + alcohol
structure (smiles),measurement,setting,value
CC(C)(C)N1CC1CNC(=O)C(=O)NCC1CN1C(C)(C)C (centres undefined),T/C,"dose: 6.25 mg/kg/injection, schedule: Q01DX009 (ip), vehicle: saline with Tween-80",132 % of control
same,T/C,"dose: 12.5 mg/kg/injection, schedule: Q01DX009 (ip), vehicle: saline with Tween-80",126 % of control
same,survivor count,"dose: 25.0 mg/kg/injection, schedule: Q01DX009 (ip), vehicle: saline with Tween-80",10 of 10
same,survivor count,"dose: 50.0 mg/kg/injection, schedule: Q01DX009 (ip), vehicle: saline with Tween-80",4 of 10 and 8 of 10
C[C@]12C[C@H](O)[C@H]3[C@@H](CCC4=CC(=O)CC[C@@]43C)[C@@H]1CC[C@@H]2C(=O)CO,survivor count,"dose: 23.0 mg/kg/injection, schedule: Q01DX Z (sc), vehicle: methylcellulose (MC)",6 of 10
same,survivor count,"dose: 39.0 mg/kg/injection, schedule: Q01DX Z (sc), vehicle: methylcellulose (MC)",3 of 10
same,survivor count,[1],2 of 10
same,survivor count,[2],5 of 10
same,survivor count,[3],5 of 10
COc1cc([C@@H]2c3cc4c(cc3[C@H](OC(C)=O)[C@H]3COC(=O)[C@@H]23)OCO4)cc(OC)c1OC,survivor count,[1],6 of 10
same,survivor count,[2],1 of 10
same,survivor count,[4],4 of 10
same,survivor count,[3],5 of 10
CC/C(=C(/CC)c1ccc(O)cc1)c1ccc(O)cc1,survivor count,"dose: 12.5 mg/kg/injection, schedule: Q01DX009 (sc), vehicle: saline with Tween-80",6 of 10
same,survivor count,"dose: 50.0 mg/kg/injection, schedule: Q01DX009 (sc), vehicle: saline with Tween-80",6 of 10
same,survivor count,[2],2 of 10
same,survivor count,[4],2 of 10
same,survivor count,"dose: 200.0 mg/kg/injection, schedule: Q01DX009 (sc), vehicle: saline with Tween-80",5 of 10
same,survivor count,[3],4 of 10
same,survivor count,"dose: 400.0 mg/kg/injection, schedule: Q01DX009 (ip), vehicle: saline with Tween-80",3 of 10
same,survivor count,"dose: 400.0 mg/kg/injection, schedule: Q01DX009 (sc), vehicle: saline with Tween-80",6 of 10
same,survivor count,[5],3 of 10
same,survivor count,[6],1 of 10
O=NN(CCCl)C(=O)NCCCl,T/C,"dose: 1.0 mg/kg/injection, schedule: Q01DX009 (ip), vehicle: saline + alcohol",148 % of control
same,T/C,"dose: 1.75 mg/kg/injection, schedule: Q01DX009 (ip), vehicle: saline + alcohol",141 % of control
same,T/C,"dose: 2.0 mg/kg/injection, schedule: Q01DX009 (sc), vehicle: saline + alcohol","142, 160, 179, 192 % of control"
same,T/C,"dose: 3.5 mg/kg/injection, schedule: Q01DX009 (ip), vehicle: saline + alcohol",140 and 148 % of control
same,T/C,[7],"175, 223, 275, 285 % of control"
same,T/C,"dose: 7.5 mg/kg/injection, schedule: Q01DX001 (ip), vehicle: saline + alcohol","118, 120, 121, 123, 136 % of control"
same,T/C,"dose: 8.0 mg/kg/injection, schedule: Q01DX009 (sc), vehicle: saline + alcohol, evaluated on day 30",236 % of control
same,T/C,"dose: 8.0 mg/kg/injection, schedule: Q01DX009 (sc), vehicle: saline + alcohol, evaluated on day 45","271, 296, 404 % of control"
same,T/C,"dose: 12.0 mg/kg/injection, schedule: Q01DX009 (ip), vehicle: saline + alcohol",130 % of control
same,T/C,"dose: 14.0 mg/kg/injection, schedule: Q01DX009 (ip), vehicle: saline + alcohol",129 % of control
same,T/C,"dose: 15.0 mg/kg/injection, schedule: Q01DX001 (ip), vehicle: saline + alcohol","140, 142, 144, 157, 180 % of control"
same,T/C,"dose: 16.0 mg/kg/injection, schedule: Q01DX009 (ip), vehicle: saline + alcohol",146 % of control
same,T/C,[8],146 % of control
same,T/C,"dose: 30.0 mg/kg/injection, schedule: Q01DX001 (ip), vehicle: saline + alcohol","300 (2×), 309, 319, 329 % of control"
same,survivor count,"dose: 64.0 mg/kg/injection, schedule: Q01DX009 (ip), vehicle: saline + alcohol",9 of 10
same,survivor count,[9],5 of 10 and 7 of 10
same,T/C,"dose: 65.0 mg/kg/injection, schedule: Q01DX017 (ip), vehicle: none",136 % of control
same,T/C,"dose: 65.0 mg/kg/injection, schedule: Q01DX017 (sc), vehicle: saline",133 % of control
CN(C)CCN1C(=O)c2cccc3cc(N)cc(c23)C1=O,T/C,"dose: 10.0 mg/kg/injection, schedule: Q01DX009 (ip), vehicle: acid diluted with saline",125 and 136 % of control
same,T/C,"dose: 16.0 mg/kg/injection, schedule: Q01DX009 (ip), vehicle: acid diluted with saline",144 % of control
same,T/C,"dose: 24.0 mg/kg/injection, schedule: Q01DX009 (ip), vehicle: acid diluted with saline",125 and 132 % of control
CCC(=O)O[C@H]1CC[C@H]2[C@@H]3CC[C@H]4CC(=O)[C@H](C)C[C@]4(C)[C@H]3CC[C@]12C,survivor count,[2],0 of 10
same,survivor count,[4],2 of 10
same,survivor count,[3],4 of 10
same,survivor count,[5],2 of 10
same,survivor count,[6],2 of 10
CC(=O)[C@H]1CC[C@H]2[C@@H]3C[C@H](C)C4=CC(=O)CC[C@]4(C)[C@H]3C(=O)C[C@]12C,survivor count,"dose: 20.0 mg/kg/injection, schedule: Q01DX009 (sc), vehicle: saline with Tween-80",4 of 10
same,survivor count,"dose: 40.0 mg/kg/injection, schedule: Q01DX009 (sc), vehicle: saline with Tween-80",4 of 10
same,survivor count,"dose: 80.0 mg/kg/injection, schedule: Q01DX009 (sc), vehicle: saline with Tween-80",1 of 10
same,survivor count,"dose: 160.0 mg/kg/injection, schedule: Q01DX009 (sc), vehicle: saline with Tween-80",5 of 10
same,survivor count,"dose: 320.0 mg/kg/injection, schedule: Q01DX009 (sc), vehicle: saline with Tween-80",3 of 10
same,survivor count,"dose: 640.0 mg/kg/injection, schedule: Q01DX009 (ip), vehicle: saline with Tween-80",6 of 10
same,survivor count,"dose: 640.0 mg/kg/injection, schedule: Q01DX009 (sc), vehicle: saline with Tween-80",4 of 10
Nc1n[nH]c(N)n1,T/C,"dose: 2000.0 mg/kg/injection, schedule: Q01DX Z (sc), vehicle: water",127 % of control
CC1CCC(NC(=O)N(CCCl)N=O)CC1 (centres undefined),T/C,"dose: 2.0 mg/kg/injection, schedule: Q01DX009 (ip), vehicle: saline + alcohol",133 % of control
same,T/C,[7],125 % of control
same,T/C,"dose: 8.0 mg/kg/injection, schedule: Q01DX009 (sc), vehicle: saline + alcohol",141 % of control
same,T/C,[8],125 % of control [9 of 10 alive]
same,T/C,"dose: 32.0 mg/kg/injection, schedule: Q01DX009 (sc), vehicle: saline + alcohol",143 % of control
same,T/C,[9],144 % of control
same,T/C,"dose: 128.0 mg/kg/injection, schedule: Q01DX009 (sc), vehicle: saline + alcohol",145 % of control
